# Screening data, single-dose tests

Data taken from ChEMBL document CHEMBL3988442, “University of Dundee, Small-Polar-MMV Screening Library” (2021).

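Phenotypic screen: M. tuberculosis growth, cholesterol and DPPC medium, 4 days; the read-out is not stated. Compounds at 50 µM. The record gives no direction; compounds that gave an IC50 in retests scored well above the rest, so higher reads as more growth inhibition. Of about 69,000 compounds tested this way, about 370 (0.54%) reached 50% or more in at least one test.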

Values are the deposited “Percent Effect”, in %.
How 0% and 100% were set is not recorded. Most values in the screen are low, and negative values occur.
The compounds are a random part of those screened.
Two or more numbers in one place are separate tests of the same structure; such repeats can differ widely.

{"structure": "CCn1cc(NC(=O)NCC(O)COc2cccc(F)c2)cn1", "stereo": "stereo not drawn", "Percent Effect": -13.86}
{"structure": "O=C(NCCNc1cc(N2CCCC2)ncn1)c1cnccn1", "Percent Effect": 1.228}
{"structure": "O=C(c1scc2c1OCCO2)N1CCOC(Cc2ccc(F)cc2)C1", "stereo": "stereo not drawn", "Percent Effect": -2.058}
{"structure": "Cc1nn(C)c2c(=O)n(CC(=O)NCCC3=CCCCC3)ccc12", "Percent Effect": -0.1733}
{"structure": "Cc1nsc(NC2CCOC3(CCCC3)C2)n1", "stereo": "stereo not drawn", "Percent Effect": 18.7}
{"structure": "COc1cccc(Nc2nc(C3CCCNC3)c3sc(C)c(C)n23)c1.Cl", "stereo": "stereo not drawn", "Percent Effect": "1.027 and -2.219"}
{"structure": "N#Cc1cc(F)ccc1Cn1cnc(C2CCC2)cc1=O", "Percent Effect": 32.45}
{"structure": "COCC1c2nnn(CC3CC3)c2CCN1C(=O)c1sccc1C", "stereo": "stereo not drawn", "Percent Effect": "0.6918 and -7.172"}
{"structure": "CCc1nsc(N2CCN(C(=O)COc3ccccc3)CC2)n1", "Percent Effect": "1.986 and 6.704"}
{"structure": "Cn1ccnc1-c1nc(N2CCCCC2)ncc1-c1ccccc1F", "Percent Effect": "-10.85 and 9.541"}
{"structure": "CCCN(CCc1ccccn1)C(=O)Cn1cnnn1", "Percent Effect": 9.327}
{"structure": "Cn1cc(CC2CC(=O)N(Cc3ccccc3OC(F)F)C2=O)cn1", "stereo": "stereo not drawn", "Percent Effect": 12.91}
{"structure": "Cc1nc(C)n(CC2CCCN(CC(=O)Nc3c(C)n[nH]c3C)C2)n1", "stereo": "stereo not drawn", "Percent Effect": -12.33}
{"structure": "Cc1noc(C)c1CCC(=O)N1CCCC(n2ccnc2C)C1", "stereo": "stereo not drawn", "Percent Effect": 0.2271}
{"structure": "CC(C(=O)N(C)Cc1noc(C2CCC2)n1)N1CCc2ccccc2C1", "stereo": "stereo not drawn", "Percent Effect": -40.23}
{"structure": "c1cnnc(N2CCCC2CNCCc2cccs2)c1", "stereo": "stereo not drawn", "Percent Effect": "12.04 and 20.44"}
{"structure": "CN(C)CCNC(=O)c1ccc(OC2CCN(CC3CC3)CC2)c(Cl)c1", "Percent Effect": -19.92}
{"structure": "c1ccc2oc(CN3CCCC(Cn4cncn4)C3)nc2c1", "stereo": "stereo not drawn", "Percent Effect": -3.528}
{"structure": "Cc1cnn(CC(C)NCc2csc(-c3cnn(C)c3)n2)c1", "stereo": "stereo not drawn", "Percent Effect": -14.39}
{"structure": "Cn1cccc1C(CNC(=O)COc1ccc(Cl)cc1Cl)N1CCCC1", "stereo": "stereo not drawn", "Percent Effect": -0.8778}
{"structure": "CCN(CC)S(=O)(=O)CCNc1ncnc2cc(F)c(F)cc12", "Percent Effect": -11.49}
{"structure": "CCc1c(C(=O)NC2CCS(=O)(=O)C2)cnn1-c1ccc(F)cc1", "stereo": "stereo not drawn", "Percent Effect": 3.533}
{"structure": "Cn1cnnc1CN1CCC2(CCC(=O)N(Cc3ccccn3)C2)CC1", "Percent Effect": 14.91}
{"structure": "Cc1c[nH]nc1C1CCN(C(=O)CC2CCCC2)C1", "stereo": "stereo not drawn", "Percent Effect": 15.58}
{"structure": "CCN(CC)S(=O)(=O)N1C[C@@H](O)[C@H](Oc2cccc(F)c2)C1", "Percent Effect": -24.17}
{"structure": "[H][C@]12CC[C@]([H])(CN(Cc3nnc(C4CC4)o3)C1)N(Cc1cscn1)C2=O", "Percent Effect": -7.97}
{"structure": "NC(=O)N1Cc2nccn2CC(Cn2ncccc2=O)C1", "stereo": "stereo not drawn", "Percent Effect": 0.8259}
{"structure": "O=C(c1cccnc1N1CCOCC1)N1CCCC1Cn1cccn1", "stereo": "stereo not drawn", "Percent Effect": -19.62}
{"structure": "CC(C)[C@H]1CN(Cc2ccccn2)C[C@@H]1NC(=O)CC1CCC1", "Percent Effect": -4.252}
{"structure": "Cn1nnc2c1C(COCC1CC1)CN(C(=O)Cc1ccccn1)C2", "stereo": "stereo not drawn", "Percent Effect": 14.62}
{"structure": "O=C(O)c1ccn(-c2ccccc2NS(=O)(=O)c2ccccc2)n1", "Percent Effect": 15.73}
{"structure": "CN(C)Cc1ccnc(C2CCCN2Cc2ccncc2)n1", "stereo": "stereo not drawn", "Percent Effect": 16.76}
{"structure": "Cc1nc(C)n(CC2CN(S(C)(=O)=O)Cc3nccn3C2)n1", "stereo": "stereo not drawn", "Percent Effect": "-4.105 and -5.318"}
{"structure": "Cc1noc(CCCC(=O)N2CCN(C)CC2c2ccccc2)n1", "stereo": "stereo not drawn", "Percent Effect": 1.363}
{"structure": "O=C(O)C(F)(F)F.O=C(O)C(F)(F)F.[H][C@@]12CN(Cc3ccncc3)C[C@]1([H])C(=O)N(Cc1ccc(OC)cc1)C2", "Percent Effect": 10.46}
{"structure": "NS(=O)(=O)c1ccc(C(=O)N2CCCC2c2ccccc2)o1", "stereo": "stereo not drawn", "Percent Effect": 1.445}
{"structure": "Cc1ncsc1CN1C[C@@H](O)[C@](O)(CNC(=O)c2ccccn2)C1", "Percent Effect": -7.159}

The first 3 entries again:

structure	Percent Effect
CCn1cc(NC(=O)NCC(O)COc2cccc(F)c2)cn1 (stereo not drawn)	-13.86%
O=C(NCCNc1cc(N2CCCC2)ncn1)c1cnccn1	1.228%
O=C(c1scc2c1OCCO2)N1CCOC(Cc2ccc(F)cc2)C1 (stereo not drawn)	-2.058%